# Data from PubChem BioAssay AID540256 (National Center for Advancing Translational Sciences (NCATS), 2011).
# Values joined by “and” are separate entries in the source; they are usually repeats but may differ in a detail not shown here. Identical values can stand only once. In all, about 300,000 compounds went through this assay and about 3,700 (1.2%) were called active. Inconclusive means that the source gave no clear call. Such entries were picked first, then a sample of the others. Calls follow the shape of the full dose curve; tested in HEK293 cells. Where the call is inconclusive, the potency comes from a doubtful curve fit.
# Assay: qHTS for Inhibitors of binding or entry into cells for Lassa Virus; also: nearly all actives have a fitted effect of over 50% in size
# Conditions: Lassa virus pseudotype entry inhibition, cell reporter; activity change, negative = inhibition: at 37.9 µM (top of the series) unless noted
# % is scaled to controls: 0 for no effect and ±100 for the full control effect; potency is read from the fitted curve at half-maximal effect.
SMILES,Potency,"activity change, negative = inhibition"
Cc1ccc(-n2ncc(C(=O)NCc3ccc4c(c3)OCO4)c2C2CCN(C(=O)OC(C)(C)C)CC2)cc1C,"inconclusive: 10 µM [inhibitor, partial curve, poor fit]",
CCOC(=O)c1c(S(=O)(=O)Nc2ccc(CN3CCC(C)CC3)cc2)c(C)n(C)c1C,"inconclusive: 4.47 µM [activator, full curve]",
Cc1sc2ncnc(SCC(=O)Nc3ccc(S(=O)(=O)N4CCOCC4)cc3)c2c1C,"inconclusive: 35.5 µM [inhibitor, single point]",
Cc1c(Cl)cccc1NC(=O)c1cc(-c2cccs2)on1,,inactive: 3.77% [at 46.1 µM]
Cc1ccc(C(=O)NC2CCCCCC2)cc1S(=O)(=O)N1CCOCC1,,inactive: 16.8%
CC[C@@H](CO)Nc1nc(NCc2ccccc2)c2ncn(C(C)C)c2n1,"inconclusive: 4.61 µM [inhibitor, partial curve, poor fit]",
Cc1ccccc1Cn1c(=O)n(CC2CCC(C(=O)N3CCC(C)CC3)CC2)c(=O)c2sccc21 (stereo not given),"inconclusive: 1.26 µM [inhibitor, full curve, poor fit]",
COc1cc(-c2cc(C(=O)Nc3ccc(S(N)(=O)=O)cc3)c3ccccc3n2)cc(OC)c1OC,"inconclusive: 15.8 µM [inhibitor, single point]",
CCOC(=O)C1CCN(c2c([N+](=O)[O-])c(C(Cl)Cl)nn2-c2ccccc2)CC1,active: 9.2 µM,
O=C1c2ccccc2NC(c2ccc(O)cc2)N1/N=C/c1ccc(O)cc1 (stereo not given),"inconclusive: 20 µM [inhibitor, partial curve, poor fit]",
COc1ccc(-c2nsc(NC(=O)COc3ccccc3OC)n2)cc1,"inconclusive: 14.1 µM [activator, single point]",
CCOc1ncccc1C(=O)OCC(=O)c1ccc(C)c(C)c1,"inconclusive: 0.141 µM [activator, full curve, poor fit]",
CC(C)Cc1nn2c(=O)cc(COC(=O)c3cccc(NC(=O)c4cccs4)c3)nc2s1,,inactive: 11.7% [at 46.1 µM]
CC(=O)N1c2ccc(S(=O)(=O)NCC3CCC(C(=O)NC4CCC(C)CC4)CC3)cc2CC1C (stereo not given),"inconclusive: 35.5 µM [inhibitor, single point]",
CCN(Cc1ccccc1)c1ccc(/C=N/NS(=O)(=O)c2ccc(C)c([N+](=O)[O-])c2)cc1,,inactive: -4.98%
N#Cc1ccc(Oc2cccc3cccnc23)c([N+](=O)[O-])c1,"inconclusive: 7.08 µM [activator, full curve, poor fit]",
CN(C)CCCc1cc(C(=O)Nc2ccc(-c3ccncc3)cc2)ccc1O,"inconclusive: 20.6 µM [inhibitor, partial curve, poor fit]",
Cn1cccc1/C=N/NC(=O)CNc1cccc2ccccc12,"inconclusive: 11.2 µM [inhibitor, partial curve, poor fit]",
COc1ccc(CCN2C(=O)CC(C(C)c3ccccc3)C2=O)cc1OC (stereo not given),"inconclusive: 1.78 µM [inhibitor, full curve, poor fit]",
CSc1ccccc1-c1nnc(-c2ccc(Cl)cc2)o1,"inconclusive: 0.158 µM [activator, full curve]",
O=C(CCN1C(=O)c2ccccc2C1=O)Nc1ccc(-c2nc3ccccc3o2)cc1,"inconclusive: 11.2 µM [activator, partial curve, poor fit]",
C=CCN(C(=O)CSc1nc2ccsc2c(=O)n1Cc1ccccn1)c1ccccc1,"inconclusive: 14.1 µM [inhibitor, partial curve, poor fit]",

SMILES,Potency,"activity change, negative = inhibition"
CSCCC(NC(=O)c1ccccc1)C(=O)N1CCN(C(c2ccccc2)c2ccccc2)CC1 (stereo not given),active: 14.1 µM,
Cc1cc(C)c(NC(=O)C2CCN(C(=O)N3CC(C)Oc4ccc(Cl)cc43)CC2)c(C)c1 (stereo not given),"inconclusive: 35.5 µM [inhibitor, partial curve, poor fit]",
Cc1cccc(N(CC(=O)NC2CCCC2)C(=O)CNC(=O)c2ccco2)c1C,,inactive: -12.7% [at 46.1 µM]
CCN(CC)S(=O)(=O)c1ccc(N2CCOCC2)c(NC(=O)C(=O)c2c(-c3ccccc3)cc3ccccn23)c1,"inconclusive: 7.3 µM [inhibitor, partial curve, poor fit]",
COc1ccc(Cl)cc1NC(=O)c1[nH]c(C)c(C(C)=O)c1C,,inactive: 0.528%
C/C(=N/OCO/N=C(/C)c1ccc(F)cc1)c1ccc(F)cc1,active: 3.16 µM,
O=C(CN(c1cccc(Cl)c1)S(=O)(=O)c1ccc(Cl)cc1)NCc1ccccn1,"inconclusive: 22.4 µM [inhibitor, single point]",
CC1CCCCN1C(=O)Cc1ccc(Cl)cc1 (stereo not given),,inactive: 19.4%
COC(=O)c1sc(NC(=O)c2ccc(Cn3cc(Cl)cn3)o2)c(C#N)c1C,,inactive: -2.53%
CCn1ccc2cc(S(=O)(=O)N3CCCN(C(=O)Nc4ccc(C)cc4Cl)CC3)ccc21,"inconclusive: 10 µM [inhibitor, partial curve, poor fit]",
C/C(=N\NC(=O)c1cc(-c2cccnc2)nc2ccccc12)c1ccccc1O,"inconclusive: 10 µM [inhibitor, partial curve, poor fit]",
CN(C(=O)c1ccc(OC2CCN(S(=O)(=O)N(C)C)CC2)cc1)C1CCCCC1,,inactive: 17.2% [at 46.1 µM]
Cc1cc(-n2cnc(-c3cn[nH]c3C)n2)no1,,inactive: 5.43% [at 46.1 µM]
O=C(O)c1cc(-c2ccc3ccccc3n2)nc2ccccc12,"inconclusive: 15.8 µM [inhibitor, partial curve, poor fit]",
Cc1oc(-c2ccc(C(=O)NCCCOC(C)C)cc2)nc1CS(=O)(=O)c1ccccc1,,inactive: 16.3% [at 46.1 µM]
CCc1nc(C)cn1S(=O)(=O)c1ccc([N+](=O)[O-])cc1,,inactive: 11.3%
O=C(Nc1ccncc1)Nc1cc(Cl)ccc1Cl,,inactive: -7.14% [at 46.1 µM]
CC(Oc1ccccc1F)C(=O)Nc1ccc2ccccc2c1 (stereo not given),"inconclusive: 4.47 µM [inhibitor, full curve, poor fit]",
COc1ccc(-c2noc(C(=O)NCc3ccc(F)cc3)n2)cc1OC,"inconclusive: 14.1 µM [inhibitor, partial curve, poor fit]",
Cc1csc(=Nc2ccc(S(=O)(=O)N3CCOCC3)cc2)n1Cc1ccco1,"inconclusive: 25.1 µM [inhibitor, single point] and inconclusive: 22.4 µM [inhibitor, single point]",
CCOC(=O)N1CCN(C(=O)C(CC(C)C)NS(=O)(=O)c2ccc3c(c2)oc(=O)n3C)CC1 (stereo not given),"inconclusive: 1.83 µM [inhibitor, full curve]",
COc1cccc(CNC(=O)CSc2cc(C)[nH]c(=O)n2)c1,,inactive: 18.7% [at 46.1 µM]

SMILES,Potency,"activity change, negative = inhibition"
O=S(=O)(NCc1ccco1)N1CCCCCC1,,inactive: 8.74%
COCCN=c1scc(-c2cc(OC)ccc2OC)n1/N=C/c1c[nH]c2ccccc12,"inconclusive: 35.5 µM [inhibitor, single point]",
Cc1ccc2nc(-c3ccc(SCC(=O)N4CCc5ccccc54)nc3)[nH]c2c1,"inconclusive: 4.11 µM [activator, full curve]",
Cc1nn(-c2ccccc2)c2c1CC(=O)Nc1ccccc1-2,"inconclusive: 0.224 µM [inhibitor, full curve, poor fit]",
CN(C)c1ccc(NC(=O)c2cccc(C(=O)Nc3ccc(N(C)C)cc3)n2)cc1,"inconclusive: 12.6 µM [inhibitor, single point]",
CCn1c(SCC(=O)c2ccc(C)cc2)nnc1-c1ccoc1C,,inactive: -5.06%
CNc1nc(N/N=C/c2cc3c(cc2[N+](=O)[O-])OCO3)nc(Nc2ccccc2)n1,"inconclusive: 25.9 µM [inhibitor, partial curve, poor fit]",
COc1ccc(-c2nnc(SCC(=O)N3CCCCC3)o2)cc1,inactive,
N#Cc1ccc(OCC(=O)N/N=C2\CCc3ccccc32)cc1,,inactive: -7.21%
CCOc1ccc2c(c1)c(=O)c(S(=O)(=O)c1ccc(CC)cc1)cn2CC,,inactive: -9.16% [at 46.1 µM]
Oc1ccc(O)c(Cc2nc3ccccc3s2)c1,"inconclusive: 8.91 µM [inhibitor, partial curve, poor fit]",
COc1cccc(-c2nc(-c3cccs3)no2)c1,"inconclusive: 7.08 µM [inhibitor, partial curve, poor fit]",
O=C(CCc1ccccc1)NC1CCSC1=O (stereo not given),"inconclusive: 0.92 µM [inhibitor, full curve, poor fit]",
COc1cc(/C=C2\SC(=O)N(Cc3ccc(F)cc3)C2=O)cc([N+](=O)[O-])c1O,"inconclusive: 3.55 µM [inhibitor, partial curve, poor fit]",
COC(=O)c1ccc(C2c3c(-c4ccc(Br)cc4)n[nH]c3C(=O)N2c2ccc(Cl)cc2)cc1 (stereo not given),"inconclusive: 11.2 µM [inhibitor, partial curve, poor fit]",
CC(=O)c1cccc(NC(=O)c2ccc([N+](=O)[O-])o2)c1,"inconclusive: 14.1 µM [inhibitor, single point]",
COc1ccc(C2=NN(C(=O)COc3ncnc4ccccc34)C(c3ccco3)C2)cc1 (stereo not given),"inconclusive: 2.24 µM [inhibitor, full curve, poor fit]",
CCOc1cccc(C(=O)Nc2ccc(N3CCCC3)cc2)c1,,inactive: -3.69% [at 46.1 µM]
O=C(Nc1ccc2nc(-c3ccc(Br)o3)[nH]c2c1)c1ccco1,"inconclusive: 10 µM [inhibitor, partial curve, poor fit]",
Cc1cc(/C=C2\SC(=O)NC2=O)c(C)n1-c1ccc(N(C)C)cc1,,inactive: -17.8%
COC(=O)C(NC(=O)c1ccc(OC)cc1)(Nc1ncc(S(=O)(=O)c2ccc([N+](=O)[O-])cc2)s1)C(F)(F)F (stereo not given),"inconclusive: 0.0052 µM [inhibitor, full curve, poor fit]",
